The source of these data is publication PMC3631187, “Structural and Functional Insights into Saccharomyces cerevisiae Riboflavin Biosynthesis Reductase RIB7” (PLoS ONE, 2013).

This assay has as its target Saccharomyces cerevisiae RIB7 (Saccharomyces cerevisiae) (UniProt P33312). Kind of assay: crystal structure; ligand-free ScRIB7 at 2.10 Å and NADPH-soaked crystal at 2.35 Å, space group P2(1)2(1)2(1), two molecules in the asymmetric unit; dimer interface chosen with PISA; both purified.

These are yes or no findings as the source states them, for the method shown. Some binding calls cover weakened binding; strength is not graded here. Tags and fused reporters may be left off the sequences shown.

B1: Saccharomyces cerevisiae RIB7 (enzyme)
chain: MSLTPLCEDLPQFLQNYLPNAGQTENTIVPFVTLTYAQSLDARVSRGPGVRTTISHPETKTMTHYLRHHHDGILVGSGTVLADNPGLNCKWGPDPAANSPRPIIIDTKQKWRFDGSKMQELFIKRQGKPPIVVVTSEPIIKEQHVDYAICPINDTTKLVDWKKLFEILKEEFNIRSVMVEGGANVINQLLLRSDIVNSLIITIGSTFLGSSGTEVSPPQTVNLKDMSWWKGITDVVLCARLADD
notes: RIB7, riboflavin biosynthesis reductase of Saccharomyces cerevisiae; RIB7 gene amplified from genomic DNA and cloned BamHI/XhoI into pGEX6p-1; Wild type; A seleno-methionine derivative was used only for phasing; Residues left by the PreScission site after cleavage are not described; also called ScRIB7; riboflavin biosynthesis reductase RIB7; source: E. coli BL21 (DE3), purified …
For the molecule B1, the binding result is “binds”.
